Literature values in US20040002476A1, “Modified fluorinated nucleoside analogues” (priority 2002, published 2004).

Tested on: HCV
Conditions: cited from earlier work

NC(=O)c1ncn([C@@H]2O[C@H](CO)[C@@H](O)[C@H]2O)n1 [Ribavirin, 1-β-D-ribofuranosyl-1-1,2,4-triazole-3-carboxamide]
patients with serum amino transferase levels reduced to normal (ribavirin alone): 40% | effect on serum levels of HCV-RNA (used alone): does not lower serum levels of HCV-RNA
